Experimental data published in article doi:10.1101/2022.11.15.516651.
These are yes or no findings as the source states them, for the method shown. Binding seen in cells or lysates may run through a third protein. Here binding means that the protein was enriched with, or labelled near, the bait; the list need not be complete.

Amino acid sequences for entries named in this document (tags omitted). A change or cut given only in a name is not applied to a line headed by its entry. Chains listed by the source or under a name are the forms on record and can include a tag or linker. Residues count along the entry.
FLAG-SLC3A2 WTseq (P08195, residues 66-630): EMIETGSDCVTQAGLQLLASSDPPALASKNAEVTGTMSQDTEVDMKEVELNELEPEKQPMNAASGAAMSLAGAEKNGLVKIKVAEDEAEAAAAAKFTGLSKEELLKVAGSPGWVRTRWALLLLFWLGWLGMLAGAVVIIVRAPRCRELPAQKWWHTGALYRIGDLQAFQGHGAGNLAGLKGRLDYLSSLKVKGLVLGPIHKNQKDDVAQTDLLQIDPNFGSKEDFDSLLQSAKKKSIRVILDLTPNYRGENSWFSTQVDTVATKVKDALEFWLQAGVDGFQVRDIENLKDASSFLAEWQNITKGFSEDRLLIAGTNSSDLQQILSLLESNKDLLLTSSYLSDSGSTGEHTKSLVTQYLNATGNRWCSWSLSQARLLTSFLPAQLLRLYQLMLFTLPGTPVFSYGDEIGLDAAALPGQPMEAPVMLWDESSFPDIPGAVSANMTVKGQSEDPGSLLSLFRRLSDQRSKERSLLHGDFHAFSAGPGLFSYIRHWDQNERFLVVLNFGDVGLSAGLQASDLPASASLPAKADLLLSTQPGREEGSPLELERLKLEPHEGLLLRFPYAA
FLAG-SLC3A2 A273N (P08195, form named): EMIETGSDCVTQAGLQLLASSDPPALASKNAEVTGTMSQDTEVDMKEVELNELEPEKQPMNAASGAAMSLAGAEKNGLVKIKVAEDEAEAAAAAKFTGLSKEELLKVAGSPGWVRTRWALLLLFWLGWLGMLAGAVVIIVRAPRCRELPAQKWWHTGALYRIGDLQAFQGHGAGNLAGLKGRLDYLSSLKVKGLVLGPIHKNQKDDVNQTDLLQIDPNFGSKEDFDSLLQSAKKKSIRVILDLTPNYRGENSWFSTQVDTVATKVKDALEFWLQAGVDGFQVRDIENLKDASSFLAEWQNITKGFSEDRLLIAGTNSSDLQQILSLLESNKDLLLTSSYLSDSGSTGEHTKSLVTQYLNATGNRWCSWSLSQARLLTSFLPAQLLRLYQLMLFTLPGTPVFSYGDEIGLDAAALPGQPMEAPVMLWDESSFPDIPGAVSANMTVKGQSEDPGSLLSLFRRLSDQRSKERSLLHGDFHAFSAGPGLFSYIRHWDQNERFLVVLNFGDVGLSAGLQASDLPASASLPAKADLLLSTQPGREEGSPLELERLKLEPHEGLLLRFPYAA
UniProt P11021, residues 19-654: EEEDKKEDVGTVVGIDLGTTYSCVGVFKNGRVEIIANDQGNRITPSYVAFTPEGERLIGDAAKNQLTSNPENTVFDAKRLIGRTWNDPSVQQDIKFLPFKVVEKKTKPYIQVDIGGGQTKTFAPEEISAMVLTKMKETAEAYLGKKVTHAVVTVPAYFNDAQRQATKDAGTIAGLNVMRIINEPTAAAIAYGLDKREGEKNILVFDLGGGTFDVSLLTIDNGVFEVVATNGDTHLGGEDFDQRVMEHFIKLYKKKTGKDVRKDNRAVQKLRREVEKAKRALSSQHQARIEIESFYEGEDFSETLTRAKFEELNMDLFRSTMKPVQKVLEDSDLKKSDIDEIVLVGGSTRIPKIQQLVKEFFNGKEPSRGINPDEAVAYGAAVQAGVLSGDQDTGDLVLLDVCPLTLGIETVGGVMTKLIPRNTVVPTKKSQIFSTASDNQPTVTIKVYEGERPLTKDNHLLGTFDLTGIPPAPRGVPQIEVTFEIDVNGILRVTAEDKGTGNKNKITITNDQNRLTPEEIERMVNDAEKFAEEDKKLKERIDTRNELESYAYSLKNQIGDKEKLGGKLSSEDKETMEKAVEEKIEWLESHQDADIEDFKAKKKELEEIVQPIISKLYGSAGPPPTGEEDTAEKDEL
UniProt P08238: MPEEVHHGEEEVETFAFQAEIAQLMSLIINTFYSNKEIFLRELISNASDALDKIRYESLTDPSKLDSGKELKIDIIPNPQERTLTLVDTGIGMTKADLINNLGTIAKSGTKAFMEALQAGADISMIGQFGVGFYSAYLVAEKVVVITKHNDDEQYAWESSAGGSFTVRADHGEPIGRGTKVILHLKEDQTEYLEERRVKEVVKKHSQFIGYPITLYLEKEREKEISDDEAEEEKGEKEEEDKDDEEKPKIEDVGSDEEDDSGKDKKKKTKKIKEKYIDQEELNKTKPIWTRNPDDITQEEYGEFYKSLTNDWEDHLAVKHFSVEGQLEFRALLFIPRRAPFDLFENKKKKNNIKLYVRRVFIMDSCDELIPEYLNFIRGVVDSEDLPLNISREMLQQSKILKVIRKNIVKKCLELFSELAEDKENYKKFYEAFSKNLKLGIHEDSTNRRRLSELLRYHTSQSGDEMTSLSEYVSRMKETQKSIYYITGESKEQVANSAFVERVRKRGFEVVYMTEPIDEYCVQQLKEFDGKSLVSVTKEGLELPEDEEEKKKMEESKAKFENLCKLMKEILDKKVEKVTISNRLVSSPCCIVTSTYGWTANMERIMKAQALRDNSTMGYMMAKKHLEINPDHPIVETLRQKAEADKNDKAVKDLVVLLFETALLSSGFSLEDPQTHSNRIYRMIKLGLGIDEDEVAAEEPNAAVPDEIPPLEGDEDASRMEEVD
UniProt Q9H9S3: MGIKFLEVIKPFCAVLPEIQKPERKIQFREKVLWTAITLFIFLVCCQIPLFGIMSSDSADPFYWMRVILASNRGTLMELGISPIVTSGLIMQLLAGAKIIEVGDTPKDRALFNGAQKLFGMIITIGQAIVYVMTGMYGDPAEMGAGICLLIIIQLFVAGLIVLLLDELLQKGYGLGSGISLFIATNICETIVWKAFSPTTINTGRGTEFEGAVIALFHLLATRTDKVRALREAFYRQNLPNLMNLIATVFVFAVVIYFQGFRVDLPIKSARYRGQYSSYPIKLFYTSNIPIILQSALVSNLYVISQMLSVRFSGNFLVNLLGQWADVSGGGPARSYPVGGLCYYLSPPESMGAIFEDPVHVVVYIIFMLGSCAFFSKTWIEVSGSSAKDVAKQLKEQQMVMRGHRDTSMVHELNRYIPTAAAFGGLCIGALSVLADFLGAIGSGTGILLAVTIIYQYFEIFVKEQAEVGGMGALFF
UniProt P27824, residues 21-592: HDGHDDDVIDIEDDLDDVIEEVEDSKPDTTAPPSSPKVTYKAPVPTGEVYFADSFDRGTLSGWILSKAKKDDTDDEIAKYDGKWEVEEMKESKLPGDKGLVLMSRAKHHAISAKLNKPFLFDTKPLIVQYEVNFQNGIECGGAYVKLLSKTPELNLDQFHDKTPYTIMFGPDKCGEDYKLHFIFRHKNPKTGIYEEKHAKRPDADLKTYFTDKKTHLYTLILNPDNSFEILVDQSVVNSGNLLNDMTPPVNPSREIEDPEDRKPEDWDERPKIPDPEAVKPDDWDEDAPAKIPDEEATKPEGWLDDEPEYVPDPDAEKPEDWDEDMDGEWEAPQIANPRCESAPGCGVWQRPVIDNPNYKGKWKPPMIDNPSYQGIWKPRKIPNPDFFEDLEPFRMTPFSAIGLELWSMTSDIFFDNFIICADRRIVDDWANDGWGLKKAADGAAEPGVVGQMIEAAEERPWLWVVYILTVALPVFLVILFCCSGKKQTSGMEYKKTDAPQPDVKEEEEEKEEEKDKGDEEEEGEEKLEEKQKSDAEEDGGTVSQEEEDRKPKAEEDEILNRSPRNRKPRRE
UniProt P16070, residues 21-742: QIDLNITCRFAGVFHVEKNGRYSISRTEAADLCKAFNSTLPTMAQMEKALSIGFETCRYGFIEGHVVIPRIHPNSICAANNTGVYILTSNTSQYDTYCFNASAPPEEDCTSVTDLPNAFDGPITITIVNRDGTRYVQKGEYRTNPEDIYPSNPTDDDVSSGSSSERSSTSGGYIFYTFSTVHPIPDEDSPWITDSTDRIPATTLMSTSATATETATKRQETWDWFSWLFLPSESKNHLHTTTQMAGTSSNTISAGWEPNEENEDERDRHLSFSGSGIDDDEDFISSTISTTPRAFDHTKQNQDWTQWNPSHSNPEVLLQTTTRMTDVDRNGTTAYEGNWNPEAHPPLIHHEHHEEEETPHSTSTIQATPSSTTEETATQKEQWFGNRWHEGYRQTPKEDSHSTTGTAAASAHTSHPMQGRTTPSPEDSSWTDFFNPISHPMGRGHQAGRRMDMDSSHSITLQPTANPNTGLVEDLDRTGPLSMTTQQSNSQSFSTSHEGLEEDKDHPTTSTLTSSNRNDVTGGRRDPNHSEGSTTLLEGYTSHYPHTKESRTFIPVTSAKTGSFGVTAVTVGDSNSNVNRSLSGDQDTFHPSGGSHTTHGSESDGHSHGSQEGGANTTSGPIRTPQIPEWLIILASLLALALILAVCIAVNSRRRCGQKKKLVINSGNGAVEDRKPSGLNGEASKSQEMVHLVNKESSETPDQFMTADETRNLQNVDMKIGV
UniProt P30825: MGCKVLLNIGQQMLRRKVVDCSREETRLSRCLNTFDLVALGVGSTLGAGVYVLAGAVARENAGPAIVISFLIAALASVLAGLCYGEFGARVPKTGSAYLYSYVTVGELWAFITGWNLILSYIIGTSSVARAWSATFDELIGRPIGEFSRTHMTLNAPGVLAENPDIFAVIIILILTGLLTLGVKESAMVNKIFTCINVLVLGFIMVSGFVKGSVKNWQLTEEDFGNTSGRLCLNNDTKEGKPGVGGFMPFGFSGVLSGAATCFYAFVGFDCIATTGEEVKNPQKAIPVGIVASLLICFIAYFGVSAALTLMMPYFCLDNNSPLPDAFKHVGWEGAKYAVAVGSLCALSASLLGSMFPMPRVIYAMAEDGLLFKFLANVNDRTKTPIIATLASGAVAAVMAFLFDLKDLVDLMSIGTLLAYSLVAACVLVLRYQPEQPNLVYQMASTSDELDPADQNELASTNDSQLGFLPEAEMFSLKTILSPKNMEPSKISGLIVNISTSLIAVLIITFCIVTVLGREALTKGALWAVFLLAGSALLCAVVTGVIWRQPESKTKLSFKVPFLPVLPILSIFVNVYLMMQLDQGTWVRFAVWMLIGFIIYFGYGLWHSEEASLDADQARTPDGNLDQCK
UniProt P11142: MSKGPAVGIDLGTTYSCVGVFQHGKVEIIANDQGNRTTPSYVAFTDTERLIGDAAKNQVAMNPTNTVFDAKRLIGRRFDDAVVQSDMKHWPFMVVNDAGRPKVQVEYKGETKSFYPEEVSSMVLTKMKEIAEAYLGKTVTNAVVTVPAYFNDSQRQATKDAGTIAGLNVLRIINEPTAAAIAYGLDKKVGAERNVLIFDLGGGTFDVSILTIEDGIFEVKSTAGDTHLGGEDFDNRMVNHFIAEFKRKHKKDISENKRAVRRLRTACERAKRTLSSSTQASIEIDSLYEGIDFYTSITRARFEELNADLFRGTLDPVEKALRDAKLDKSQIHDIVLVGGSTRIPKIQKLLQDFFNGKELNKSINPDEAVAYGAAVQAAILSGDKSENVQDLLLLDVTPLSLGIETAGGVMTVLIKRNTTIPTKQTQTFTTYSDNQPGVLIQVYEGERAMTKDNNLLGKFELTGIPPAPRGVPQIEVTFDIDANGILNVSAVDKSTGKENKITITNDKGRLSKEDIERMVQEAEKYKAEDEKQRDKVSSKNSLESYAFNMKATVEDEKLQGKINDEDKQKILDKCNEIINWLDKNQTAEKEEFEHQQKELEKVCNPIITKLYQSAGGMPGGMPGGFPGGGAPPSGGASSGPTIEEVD
UniProt P04792: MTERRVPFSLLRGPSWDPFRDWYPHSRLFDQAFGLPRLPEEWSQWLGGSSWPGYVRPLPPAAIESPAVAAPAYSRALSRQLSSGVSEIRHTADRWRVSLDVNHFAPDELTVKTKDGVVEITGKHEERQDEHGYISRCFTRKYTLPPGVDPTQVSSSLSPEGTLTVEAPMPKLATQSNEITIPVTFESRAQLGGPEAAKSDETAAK

Experiments:
[1] = molecular target: FLAG-SLC3A2 A273N (human) (UniProt P08195); test: affinity purification with mass spectrometry
[2] = molecular target: FLAG-SLC3A2 WTseq (human) (UniProt P08195); test: affinity purification with mass spectrometry

Row | Substance | binding [1] | binding [2]
1 | HSPA5 (from UniProt P11021 19-654) | binds | binds
2 | HSP90AB1 (from UniProt P08238 1-724) | binds | binds
3 | SEC61A2 (from UniProt Q9H9S3 1-476) | binds | binds
4 | CANX (from UniProt P27824 21-592) | binds | binds
5 | CD44 (from UniProt P16070 21-742) |  | binds
6 | BSG (from UniProt P35613-2) |  | binds
7 | Arg/Lys/Ornithine high-affinity permease SLC7A1 (from UniProt P30825 1-629) |  | binds
8 | HSPA8 (from UniProt P11142 1-646) | binds | binds
9 | HSPB1 (from UniProt P04792 1-205) | binds | binds
